# Earlier results as cited in US5159069A, “Sulfated tannins and their salts” (Yamanouchi Pharmaceutical Co., Ltd., priority 1988, dated 1992).
# At least one compound was matched to its structure with a doubt left.
# System: MOLT-4 and MOLT-4/HIV HTLV-IIIB cells
# Conditions: co-cultivation of MOLT-4 and MOLT-4/HIV cells, reported by Yamamoto et al.; cited from earlier work
smiles,measurement,value
"Cc1cn([C@H]2C[C@H](N=[N+]=[N-])[C@@H](CO)O2)c(=O)[nH]c1=O [AZT, azidothymidine]",suppression of formation of multinucleated giant cells (Syncytium),could not be suppressed
